Measured values reported in patent US9962383B2, “Compounds, compositions and methods of agelastatin alkaloids” (Massachusetts Institute of Technology, priority 2013, dated 2018).
Some results were stated once for a whole list of compounds, not compound by compound. At least one compound was matched to its structure with a doubt left.

Test system: human cell lines (U-937, HeLa, A549, BT549, IMR90)
Assay: Ability to induce cell death in the panel of five human cell lines (Table 3)
Format: cell-based
Settings: (−)-2 vs (−)-1, (−)-6 vs (−)-4, D (4) and E (5) vs A (1); Table 3 data
Protocol: Six (−)-agelastatins along with eight closely related derivatives prepared in the above examples were tested (Table 3). The six (−)-agelastatin alkaloids (1-6, respectively), (−)-O-methyl-di-epi-agelastatin A (50), (−)-dehydroagelastatin A (51), (−)-di-epi-agelastatin C (52), (+)-O-methyl-pre-agelastatin A and D (39 and 53, respectively), along with bicyclic pyrroles (+)-44, (+)-45, and triazone (+)-48 were tested for their ability to induce cell death in four human cancer cell lines (U-937, lymphoma; HeLa, cervical carcinoma; A549, non-small cell lung carcinoma; and BT549, breast carcinoma) and one immortalized normal human cell line (IMR90, lung fibroblasts) after a 48-hour exposure. […]
Adherent cells (HeLa, A549, BT549, and IMR90) were added into 96-well plates (5,000 cells/well for HeLa cell line; 2,000 cells/well for A549, BT549, and IMR90 cell lines) in 100 μL media and were allowed to adhere for 2-3 hours. […] After 48 h of continuous exposure, the plates were evaluated using the SRB colorimetric assay as described previously (V. Vichai, K. Kirtikara, Nature Prot., 2006, 1, 1112). […] The dye was solubilized by adding 10 mM Tris base solution (pH 10.5, 200 μL) and incubating at room temperature for 30 min Plates were read at λ=510 nm. IC50 values were determined from three or more independent experiments using TableCurve (San Jose, Calif.). […]

O=C1N[C@H]2[C@@H]3NC(=O)c4cc(Br)c(Br)n4[C@@H]3C[C@@]2(O)N1 [(−)-6, (−)-agelastatin F]
reduction in anticancer potency relative to the compared agelastatin: 5-20 fold

(−)-agelastatin B [(−)-2]
reduction in anticancer potency relative to the compared agelastatin: 5-20 fold
